Here are results for 1 molecule from patent US20240360228A1 (BIOLEGEND, published 2024).

Protein sequences, listed by entry. Tags and fused reporters are not part of them. Lines headed by an entry give the natural chain unless they say otherwise; changes in a name come on top.
UniProt P51685: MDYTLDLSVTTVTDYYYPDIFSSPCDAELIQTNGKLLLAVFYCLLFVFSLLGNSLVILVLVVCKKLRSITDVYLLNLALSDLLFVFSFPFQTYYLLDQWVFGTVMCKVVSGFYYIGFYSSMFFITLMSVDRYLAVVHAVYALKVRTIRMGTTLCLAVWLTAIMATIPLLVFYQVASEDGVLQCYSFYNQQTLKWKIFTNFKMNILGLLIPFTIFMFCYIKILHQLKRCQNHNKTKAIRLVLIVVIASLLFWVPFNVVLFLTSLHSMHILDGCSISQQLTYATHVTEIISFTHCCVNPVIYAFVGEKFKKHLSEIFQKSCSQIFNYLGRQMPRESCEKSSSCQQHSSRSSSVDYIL

These are yes or no findings as the source states them, for the method shown. Some results given as binding are weak or reduced against the parent protein; the word gives no strength.

The assay addresses human chemokine (C-C motif) receptor 8 (CCR8) (human) (UniProt P51685). Nature of the assay: flow cytometry, PE-conjugated antibody on human peripheral blood lymphocytes. In general terms: A flow cytometer gives signals particle by particle.

B1: AB6 (antibody, V domains shown)
VH: QVQLKESGPGLVQPSQTLSLTCTVSGFSLTSYHVSWVRQPPGKGLEWMGVIWTGGSTTYNSLLKSRLSISRDISKSQVFLKMNSLQTEDTATYYCARGGTVVKGGFAYWGQGTLVTVSS
VL: DIQMTQSPASLSASLEEIVTITCQASQDIGNRLSWYQQKPGKSPQLLIYGATSLADGVPSRFSGSRSGTQYSLKISRLQVEDIGIYYCLQAYSTPLTFGSGTKLEIK
For the molecule B1, the binding entry was “binds”.
